Publication PMC11078746 (Nature, 2024)
Where “and” joins values, the source holds several entries; their conditions need not be identical. Equal entries are not always repeated. This continues a long series; more values of the same kind are listed elsewhere.

Columns and labels:
SW48 xenografts = assay: SW48 cell-derived xenograft efficacy, HRO761 orally once daily; format: in vivo, mouse
Experimental: (§1) All animal studies were conducted in accordance with ethics and procedures covered by permit BS-2275 and BS-1975 issued by the Kantonales Veterinäramt Basel-Stadt and in strict adherence to guidelines of the Eidgenössisches Tierschutzgesetz and the Eidgenössische Tierschutzverordnung, Switzerland. All animal studies were approved by the internal ethics committee. All animals had access to food and water ad libitum and were identified with transponders. They were housed in a specific-pathogen-free facility in IVC racks under a 12 h–12 h light–dark cycle. To establish cell-line-derived xenograft models, 6–7-week-old female athymic nude (Crl:NU(NCr)-Foxn1^nu) or SCID-BEIGE (CB17.Cg-PrkdcscidLystbg-J/Crl) mice from Charles River were engrafted subcutaneously with 5 million tumour cells in HBSS (H6648, Sigma-Aldrich). For SNU-407, Lovo, IM95, RL95.2, Ishikawa and IGROV-1, the cells were concentrated in 50% Matrigel (354234, Corning). Patient-derived xenografts were induced and expanded by transplantation as previously described. […] For the efficacy experiment, mice were randomized into groups (n = 5–6) for a mean tumour size of 100–150 mm^3. […] Blood samples were collected on day 7 and 91. […] Tumour responses are reported with the measures of tumour volumes from the treatment start. […] Animals were randomized (n = 3) and tumour samples were collected at 0, 1, 4, 8 and 24 h on the first day and then collected 4 h after the last treatment on day 3, 8, 10, 14 (including a 24 h timepoint), 17 and 21. Tumours were excised, weighed, either frozen in liquid nitrogen and cryogenic dry pulverized with the CryoPrep system (model CP-02, Covaris) or processed to FFPE after fixation. […] On day 12, blood samples were collected for PK analysis. On the last day (3 h after the last treatment), tumours were excised, weighed, frozen in liquid nitrogen and cryogenic dry pulverized for PD analysis.

HCT116 TP53 WT xenograft = assay: MSI xenograft model efficacy; format: in vivo; conditions: 60 mpk, 60 mg/kg
Experimental: as §1

[1] = system: HCT116 TP53 null xenograft; assay: MSI xenograft model efficacy; format: in vivo; conditions: HCT116 p53 null, 60 mpk, single mouse, 60 mg/kg
Experimental: as §1

CCc1c(N2CCN(C(=O)c3ncnc(C)c3O)CC2)c(=O)n2nc(C3=CCOCC3)nc2n1CC(=O)Nc1ccc(C(F)(F)F)cc1Cl [HRO761]
TVol, individual mouse (SW48 xenografts; HRO761 60mg/kg, day 49 post 1st dose, 60 mg/kg): 51.51 mm3 and 18.01 mm3 and 21.47 mm3 and 23.95 mm3 and 28.03 mm3
TVol, individual mouse (SW48 xenografts; HRO761 60mg/kg, day 52 post 1st dose, 60 mg/kg): 68.35 mm3 and 24.01 mm3 and 24.32 mm3 and 43.1 mm3 and 38.53 mm3
TVol, individual mouse (SW48 xenografts; HRO761 60mg/kg, day 56 post 1st dose, 60 mg/kg): 82.87 mm3 and 7.91 mm3 and 30.79 mm3 and 31.31 mm3 and 53.59 mm3
TVol, individual mouse (SW48 xenografts; HRO761 60mg/kg, day 59 post 1st dose, 60 mg/kg): 103.18 mm3 and 10.3 mm3 and 48.16 mm3 and 59.59 mm3 and 69.82 mm3
TVol, individual mouse (SW48 xenografts; HRO761 60mg/kg, day 63 post 1st dose, 60 mg/kg): 102.68 mm3 and 9.67 mm3 and 42.12 mm3 and 67.35 mm3 and 93.52 mm3
TVol, individual mouse (SW48 xenografts; HRO761 60mg/kg, day 66 post 1st dose, 60 mg/kg): 101.51 mm3 and 13.13 mm3 and 57.48 mm3 and 81.89 mm3 and 113.13 mm3
TVol, individual mouse (SW48 xenografts; HRO761 60mg/kg, day 70 post 1st dose, 60 mg/kg): 127.55 mm3 and 15.6 mm3 and 77.18 mm3 and 112.34 mm3 and 128.92 mm3
TVol, individual mouse (SW48 xenografts; HRO761 60mg/kg, day 73 post 1st dose, 60 mg/kg): 119.24 mm3 and 17.3 mm3 and 93.25 mm3 and 122.55 mm3 and 148.14 mm3
TVol, individual mouse (SW48 xenografts; HRO761 60mg/kg, day 76 post 1st dose, 60 mg/kg): 153.16 mm3 and 20.34 mm3 and 83.04 mm3 and 141.81 mm3 and 192.27 mm3
TVol, individual mouse (SW48 xenografts; HRO761 60mg/kg, day 79 post 1st dose, 60 mg/kg): 180.13 mm3 and 32.32 mm3 and 98.53 mm3 and 183.17 mm3 and 228.57 mm3
TVol, individual mouse (SW48 xenografts; HRO761 60mg/kg, day 83 post 1st dose, 60 mg/kg): 188.68 mm3 and 36.4 mm3 and 118.06 mm3 and 197.83 mm3 and 298.54 mm3
TVol, individual mouse (SW48 xenografts; HRO761 60mg/kg, day 86 post 1st dose, 60 mg/kg): 277.63 mm3 and 35.68 mm3 and 148.42 mm3 and 200.74 mm3 and 324.66 mm3
TVol, individual mouse (SW48 xenografts; HRO761 60mg/kg, day 90 post 1st dose, 60 mg/kg): 353.7 mm3 and 58.99 mm3 and 203.08 mm3 and 217.42 mm3 and 418.27 mm3
TVol, individual mouse (SW48 xenografts; HRO761 60mg/kg, day 92 post 1st dose, 60 mg/kg): 334.59 mm3 and 57.33 mm3 and 204.82 mm3 and 218.54 mm3 and 474.36 mm3
TVol, individual mouse (SW48 xenografts; HRO761 120mg/kg, day 0 post 1st dose, 120 mg/kg): 116.68 mm3 and 125.27 mm3 and 177.18 mm3 and 142.4 mm3 and 181.53 mm3
TVol, individual mouse (SW48 xenografts; HRO761 120mg/kg, day 3 post 1st dose, 120 mg/kg): 142.47 mm3 and 186.73 mm3 and 186.95 mm3 and 111.35 mm3 and 197.89 mm3
TVol, individual mouse (SW48 xenografts; HRO761 120mg/kg, day 7 post 1st dose, 120 mg/kg): 141.84 mm3 and 146.3 mm3 and 153.59 mm3 and 128.76 mm3 and 204.55 mm3
TVol, individual mouse (SW48 xenografts; HRO761 120mg/kg, day 10 post 1st dose, 120 mg/kg): 156.98 mm3 and 135.71 mm3 and 131.09 mm3 and 118.43 mm3 and 177.29 mm3
TVol, individual mouse (SW48 xenografts; HRO761 120mg/kg, day 31 post 1st dose, 120 mg/kg): 18.4 mm3 and 30.97 mm3 and 20.27 mm3 and 13.58 mm3 and 31.87 mm3
TVol, individual mouse (SW48 xenografts; HRO761 120mg/kg, day 35 post 1st dose, 120 mg/kg): 11.73 mm3 and 21.67 mm3 and 18.71 mm3 and 15.84 mm3 and 25.06 mm3
TVol, individual mouse (SW48 xenografts; HRO761 120mg/kg, day 38 post 1st dose, 120 mg/kg): 10.12 mm3 and 24.79 mm3 and 15.42 mm3 and 10.17 mm3 and 14.7 mm3
TVol, individual mouse (SW48 xenografts; HRO761 120mg/kg, day 42 post 1st dose, 120 mg/kg): 11.83 mm3 and 20.83 mm3 and 24.05 mm3 and 7.53 mm3 and 11.98 mm3
TVol, individual mouse (SW48 xenografts; HRO761 120mg/kg, day 45 post 1st dose, 120 mg/kg): 14.14 mm3 and 22.52 mm3 and 34.42 mm3 and 11.93 mm3 and 27.68 mm3
TVol, individual mouse (SW48 xenografts; HRO761 120mg/kg, day 49 post 1st dose, 120 mg/kg): 12.44 mm3 and 9.2 mm3 and 35.08 mm3 and 16.12 mm3 and 14.85 mm3
TVol, individual mouse (SW48 xenografts; HRO761 120mg/kg, day 52 post 1st dose, 120 mg/kg): 12.46 mm3 and 2.93 mm3 and 31.32 mm3 and 19.01 mm3 and 7.39 mm3
TVol, individual mouse (SW48 xenografts; HRO761 120mg/kg, day 56 post 1st dose, 120 mg/kg): 20.97 mm3 and 5 mm3 and 46.97 mm3 and 34.59 mm3 and 9.29 mm3
TVol, individual mouse (SW48 xenografts; HRO761 120mg/kg, day 59 post 1st dose, 120 mg/kg): 24.89 mm3 and 6.45 mm3 and 43.1 mm3 and 38.18 mm3 and 7.96 mm3
TVol, individual mouse (SW48 xenografts; HRO761 120mg/kg, day 63 post 1st dose, 120 mg/kg): 29.66 mm3 and 3.38 mm3 and 45.16 mm3 and 42.08 mm3 and 8.27 mm3
TVol, individual mouse (SW48 xenografts; HRO761 120mg/kg, day 66 post 1st dose, 120 mg/kg): 36.01 mm3 and 1.11 mm3 and 63.74 mm3 and 62.9 mm3 and 6.44 mm3
TVol, individual mouse (SW48 xenografts; HRO761 120mg/kg, day 70 post 1st dose, 120 mg/kg): 47.92 mm3 and 1.76 mm3 and 70.95 mm3 and 72.09 mm3 and 4.36 mm3
TVol, individual mouse (SW48 xenografts; HRO761 120mg/kg, day 73 post 1st dose, 120 mg/kg): 51.19 mm3 and 4.39 mm3 and 77 mm3 and 93.1 mm3 and 3.15 mm3
TVol, individual mouse (SW48 xenografts; HRO761 120mg/kg, day 76 post 1st dose, 120 mg/kg): 58.83 mm3 and 2.67 mm3 and 76.97 mm3 and 85.78 mm3 and 4.13 mm3
TVol, individual mouse (SW48 xenografts; HRO761 120mg/kg, day 79 post 1st dose, 120 mg/kg): 74.28 mm3 and 3.38 mm3 and 84.28 mm3 and 104.47 mm3 and 5.16 mm3
TVol, individual mouse (SW48 xenografts; HRO761 120mg/kg, day 83 post 1st dose, 120 mg/kg): 88.58 mm3 and 2.55 mm3 and 98.28 mm3 and 141.69 mm3 and 3.47 mm3
TVol, individual mouse (SW48 xenografts; HRO761 120mg/kg, day 86 post 1st dose, 120 mg/kg): 145.33 mm3 and 2.84 mm3 and 118.1 mm3 and 155.48 mm3 and 5.53 mm3
TVol, individual mouse (SW48 xenografts; HRO761 120mg/kg, day 90 post 1st dose, 120 mg/kg): 162.9 mm3 and 0.32 mm3 and 119.94 mm3 and 167.94 mm3 and 6.07 mm3
TVol, individual mouse (SW48 xenografts; HRO761 120mg/kg, day 92 post 1st dose, 120 mg/kg): 149.38 mm3 and 0.7 mm3 and 108.13 mm3 and 215.2 mm3 and 1.43 mm3
Tumour volume (TVol) (HCT116 TP53 WT xenograft; day 7, single mouse): 161.18 mm3 and 348.98 mm3
Tumour volume (TVol) (HCT116 TP53 WT xenograft; day 10, single mouse): 74.12 mm3 and 353.50 mm3 and 171.88 mm3 and 344.19 mm3 and 134.73 mm3 and 348.18 mm3
Tumour volume (TVol) ([1]; day 7): 240.34 mm3 and 270.16 mm3
Tumour volume (TVol) ([1]; day 10): 89.52 mm3 and 288.86 mm3 and 81.72 mm3 and 135.51 mm3 and 171.62 mm3 and 236.68 mm3
